Measurements reported in PubChem BioAssay AID1259405 (NCATS, 2018)

- Screen: 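Knock-downs that lift recombinant protein yield in hamster ovary cells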 (primary screen)
- Cells: Chinese hamster CHO-K1 ovary cells with stable secreted eGFP expression
- Reagents: single siRNA against mouse genes, 0.8 pmol siRNA per well (2 µl of 400 nM stock)
- Time to read-out: 3 days
- Detection: 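Percent of the per-plate non-targeting control median for intracellular GFP per well by laser scanning cytometry and for cell viability by ATP luminescence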
- Reading the numbers: GFP, % of control: higher = more GFP per well, higher productivity; viability (ATP), % of control: higher = more viable cells (more ATP)
- Active means: 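a knock-down is called active if GFP reaches 120% or more of non-targeting control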
The deposit covers about 50,000 reagents; this is a random part of them. In the full data, about 4,000 (8%) are marked active. 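Mouse siRNA library applied to hamster cells; one well for each siRNA.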 Unmarked entries are inactive. Reagents against one gene are numbered here.

no.	gene symbol	reagent	GFP, % of control	viability (ATP), % of control
1	Fcrl2	1	291 (active)	118
2	Fcrl2	2	65.6	61.5
3	Fcrl2	3	76.8	73.2
4	Mill1	1	58.3	70.6
5	Mill1	2	40.3	72.4
6	Mill1	3	46.6	64.6
7	Gpr88	1	58.3	74.9
8	Gpr88	2	84.9	72.4
9	Gpr88	3	77.3	75.4
10	Senp8	1	107	84.6
11	Senp8	2	77.3	68.8
12	Pacs2	1	57.7	70.5
13	Pacs2	2	78.6	83.4
14	Pacs2	3	135 (active)	123
15	Cd248	1	97.4	93
16	Cd248	2	79.7	92.8
17	Cd248	3	92	72.8
18	Zmat5	1	97.5	69.3
19	Zmat5	2	84.8	92.6
20	Zmat5	3	118	82.6
21	Efna1	1	83.9	74.5
22	Efna1	2	89.4	76
23	Efna1	3	113	45.4
24	Mzb1	1	150 (active)	75.6
25	Mzb1	2	78.7	79.7
26	Mzb1	3	45.7	70.6
27	Col13a1	1	71.1	73.4
28	Col13a1	2	112	78.2
29	Col13a1	3	30.7	57.8
30	Derl1	1	75	93.7
31	Derl1	2	79.9	69.7
32	Derl1	3	64.8	88.9
33	Cd84	1	23.5	23.4
34	Cd84	2	87.2	103
35	Cd84	3	63.2	77.1

Only “GFP, % of control”, for 5 of the entries above:
Cd248 #1	97.4
Cd248 #2	79.7
Cd248 #3	92
Zmat5 #1	97.5
Zmat5 #2	84.8
